Test results taken from paper PMC10581371.
These are yes or no findings as the source states them, for the method shown. In cells and extracts the contact can be indirect. Some binding calls cover weakened binding; strength is not graded here.

Chains of the proteins cited; added tags and fusions are not shown.
UniProt P22314: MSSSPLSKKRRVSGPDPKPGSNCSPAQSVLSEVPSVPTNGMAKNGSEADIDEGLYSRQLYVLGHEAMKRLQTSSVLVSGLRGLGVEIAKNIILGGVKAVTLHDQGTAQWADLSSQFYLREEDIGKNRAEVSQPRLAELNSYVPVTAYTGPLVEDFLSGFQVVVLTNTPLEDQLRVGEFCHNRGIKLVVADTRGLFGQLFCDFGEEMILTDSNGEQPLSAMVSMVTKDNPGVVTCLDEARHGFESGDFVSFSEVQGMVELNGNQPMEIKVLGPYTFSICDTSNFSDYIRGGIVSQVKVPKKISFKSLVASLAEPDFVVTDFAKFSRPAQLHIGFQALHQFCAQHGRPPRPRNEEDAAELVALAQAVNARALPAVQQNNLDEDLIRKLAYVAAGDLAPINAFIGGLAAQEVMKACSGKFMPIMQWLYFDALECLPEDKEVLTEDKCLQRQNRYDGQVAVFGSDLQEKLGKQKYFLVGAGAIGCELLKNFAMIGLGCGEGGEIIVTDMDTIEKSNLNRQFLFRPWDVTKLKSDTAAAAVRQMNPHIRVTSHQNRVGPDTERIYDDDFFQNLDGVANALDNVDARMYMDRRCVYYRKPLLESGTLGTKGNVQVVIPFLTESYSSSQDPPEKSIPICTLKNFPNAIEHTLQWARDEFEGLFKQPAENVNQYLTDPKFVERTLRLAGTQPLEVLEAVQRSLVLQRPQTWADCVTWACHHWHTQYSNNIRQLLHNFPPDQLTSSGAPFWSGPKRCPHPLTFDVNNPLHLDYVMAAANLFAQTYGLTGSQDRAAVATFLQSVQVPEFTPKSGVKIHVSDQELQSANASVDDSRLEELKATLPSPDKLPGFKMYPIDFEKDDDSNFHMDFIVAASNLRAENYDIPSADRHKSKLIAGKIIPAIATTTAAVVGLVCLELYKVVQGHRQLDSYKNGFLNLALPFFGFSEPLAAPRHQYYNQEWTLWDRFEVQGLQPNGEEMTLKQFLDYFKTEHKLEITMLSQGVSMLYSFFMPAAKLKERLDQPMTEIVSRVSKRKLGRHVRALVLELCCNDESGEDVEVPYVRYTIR

Target: UBA1 (UniProt P22314)
Test: co-IP; PC3 cells transfected with RBM15 and UBA1 plasmids; lysate incubated overnight at 4 °C with antibody on Dynabeads Protein G, washed 3 times with lysis buffer, bound proteins and 10% inputs detected by Western blots

B1: RBM15 (protein, UniProt Q96T37 1-977)
chain: MRTAGRDPVPRRSPRWRRAVPLCETSAGRRVTQLRGDDLRRPATMKGKERSPVKAKRSRGGEDSTSRGERSKKLGGSGGSNGSSSGKTDSGGGSRRSLHLDKSSSRGGSREYDTGGGSSSSRLHSYSSPSTKNSSGGGESRSSSRGGGGESRSSGAASSAPGGGDGAEYKTLKISELGSQLSDEAVEDGLFHEFKRFGDVSVKISHLSGSGSGDERVAFVNFRRPEDARAAKHARGRLVLYDRPLKIEAVYVSRRRSRSPLDKDTYPPSASVVGASVGGHRHPPGGGGGQRSLSPGGAALGYRDYRLQQLALGRLPPPPPPPLPRDLERERDYPFYERVRPAYSLEPRVGAGAGAAPFREVDEISPEDDQRANRTLFLGNLDITVTESDLRRAFDRFGVITEVDIKRPSRGQTSTYGFLKFENLDMSHRAKLAMSGKIIIRNPIKIGYGKATPTTRLWVGGLGPWVPLAALAREFDRFGTIRTIDYRKGDSWAYIQYESLDAAHAAWTHMRGFPLGGPDRRLRVDFADTEHRYQQQYLQPLPLTHYELVTDAFGHRAPDPLRGARDRTPPLLYRDRDRDLYPDSDWVPPPPPVRERSTRTAATSVPAYEPLDSLDRRRDGWSLDRDRGDRDLPSSRDQPRKRRLPEESGGRHLDRSPESDRPRKRHCAPSPDRSPELSSSRDRYNSDNDRSSRLLLERPSPIRDRRGSLEKSQGDKRDRKNSASAERDRKHRTTAPTEGKSPLKKEDRSDGSAPSTSTASSKLKSPSQKQDGGTAPVASASPKLCLAWQGMLLLKNSNFPSNMHLLQGDLQVASSLLVEGSTGGKVAQLKITQRLRLDQPKLDEVTRRIKVAGPNGYAILLAVPGSSDSRSSSSSAASDTATSTQRPLRNLVSYLKQKQAAGVISLPVGGNKDKENTGVLHAFPPCEFSQQFLDSPAKALAKSEEDYLVMIIVRGFGFQIGVRYENKKRENLALTLL
With B1 the binding was “binds”.
